Results on 3 molecules are retold here after PMC5013666.

Protein sequences, listed by entry. Tags and fused reporters are not part of them. Lines headed by an entry give the natural chain unless they say otherwise; changes in a name come on top. Chains listed by the source or under a name are the forms on record and can include a tag or linker. Residues count along the entry.
UniProt P06213: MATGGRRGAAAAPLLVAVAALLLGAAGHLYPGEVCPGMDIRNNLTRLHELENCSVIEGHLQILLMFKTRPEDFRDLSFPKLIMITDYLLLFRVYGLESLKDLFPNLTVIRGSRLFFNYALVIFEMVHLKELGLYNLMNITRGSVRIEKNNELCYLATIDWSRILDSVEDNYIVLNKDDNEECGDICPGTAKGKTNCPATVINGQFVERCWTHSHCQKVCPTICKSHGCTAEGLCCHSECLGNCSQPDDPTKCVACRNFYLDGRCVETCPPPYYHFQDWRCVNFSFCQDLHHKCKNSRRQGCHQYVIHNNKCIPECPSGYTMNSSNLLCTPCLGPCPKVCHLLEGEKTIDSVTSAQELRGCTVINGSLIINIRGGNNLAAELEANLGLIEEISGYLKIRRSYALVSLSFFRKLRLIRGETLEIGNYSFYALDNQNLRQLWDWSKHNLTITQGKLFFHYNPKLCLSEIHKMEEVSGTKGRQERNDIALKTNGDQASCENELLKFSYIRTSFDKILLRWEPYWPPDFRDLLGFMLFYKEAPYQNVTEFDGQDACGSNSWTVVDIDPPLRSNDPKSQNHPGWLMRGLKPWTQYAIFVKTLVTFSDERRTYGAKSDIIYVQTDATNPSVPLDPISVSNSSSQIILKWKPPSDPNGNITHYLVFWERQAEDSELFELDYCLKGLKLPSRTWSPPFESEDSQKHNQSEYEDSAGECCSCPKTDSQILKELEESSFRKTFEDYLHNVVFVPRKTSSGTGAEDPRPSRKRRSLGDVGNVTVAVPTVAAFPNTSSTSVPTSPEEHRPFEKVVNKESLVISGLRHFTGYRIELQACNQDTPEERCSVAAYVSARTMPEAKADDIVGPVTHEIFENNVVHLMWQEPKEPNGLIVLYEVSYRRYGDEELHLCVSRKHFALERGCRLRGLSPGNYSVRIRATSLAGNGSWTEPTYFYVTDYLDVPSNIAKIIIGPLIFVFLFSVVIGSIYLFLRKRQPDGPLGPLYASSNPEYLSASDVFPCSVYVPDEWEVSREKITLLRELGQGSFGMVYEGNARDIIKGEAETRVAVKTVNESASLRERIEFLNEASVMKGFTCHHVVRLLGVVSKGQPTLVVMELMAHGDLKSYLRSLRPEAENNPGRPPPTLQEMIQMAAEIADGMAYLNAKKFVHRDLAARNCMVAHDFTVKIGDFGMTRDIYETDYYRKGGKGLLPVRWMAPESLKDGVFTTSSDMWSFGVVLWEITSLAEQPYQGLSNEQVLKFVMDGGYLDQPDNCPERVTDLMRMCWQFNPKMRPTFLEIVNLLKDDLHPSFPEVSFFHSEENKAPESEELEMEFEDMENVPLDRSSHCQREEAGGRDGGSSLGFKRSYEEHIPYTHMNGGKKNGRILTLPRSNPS
INSR-GFP: residues 28-1382 of P06213
INSRβ (insulin receptor beta subunit), endogenous (human (endogenous in HeLa and HepG2)): residues 763-1382 of P06213
INSR K1079R-GFP (P06213, form named): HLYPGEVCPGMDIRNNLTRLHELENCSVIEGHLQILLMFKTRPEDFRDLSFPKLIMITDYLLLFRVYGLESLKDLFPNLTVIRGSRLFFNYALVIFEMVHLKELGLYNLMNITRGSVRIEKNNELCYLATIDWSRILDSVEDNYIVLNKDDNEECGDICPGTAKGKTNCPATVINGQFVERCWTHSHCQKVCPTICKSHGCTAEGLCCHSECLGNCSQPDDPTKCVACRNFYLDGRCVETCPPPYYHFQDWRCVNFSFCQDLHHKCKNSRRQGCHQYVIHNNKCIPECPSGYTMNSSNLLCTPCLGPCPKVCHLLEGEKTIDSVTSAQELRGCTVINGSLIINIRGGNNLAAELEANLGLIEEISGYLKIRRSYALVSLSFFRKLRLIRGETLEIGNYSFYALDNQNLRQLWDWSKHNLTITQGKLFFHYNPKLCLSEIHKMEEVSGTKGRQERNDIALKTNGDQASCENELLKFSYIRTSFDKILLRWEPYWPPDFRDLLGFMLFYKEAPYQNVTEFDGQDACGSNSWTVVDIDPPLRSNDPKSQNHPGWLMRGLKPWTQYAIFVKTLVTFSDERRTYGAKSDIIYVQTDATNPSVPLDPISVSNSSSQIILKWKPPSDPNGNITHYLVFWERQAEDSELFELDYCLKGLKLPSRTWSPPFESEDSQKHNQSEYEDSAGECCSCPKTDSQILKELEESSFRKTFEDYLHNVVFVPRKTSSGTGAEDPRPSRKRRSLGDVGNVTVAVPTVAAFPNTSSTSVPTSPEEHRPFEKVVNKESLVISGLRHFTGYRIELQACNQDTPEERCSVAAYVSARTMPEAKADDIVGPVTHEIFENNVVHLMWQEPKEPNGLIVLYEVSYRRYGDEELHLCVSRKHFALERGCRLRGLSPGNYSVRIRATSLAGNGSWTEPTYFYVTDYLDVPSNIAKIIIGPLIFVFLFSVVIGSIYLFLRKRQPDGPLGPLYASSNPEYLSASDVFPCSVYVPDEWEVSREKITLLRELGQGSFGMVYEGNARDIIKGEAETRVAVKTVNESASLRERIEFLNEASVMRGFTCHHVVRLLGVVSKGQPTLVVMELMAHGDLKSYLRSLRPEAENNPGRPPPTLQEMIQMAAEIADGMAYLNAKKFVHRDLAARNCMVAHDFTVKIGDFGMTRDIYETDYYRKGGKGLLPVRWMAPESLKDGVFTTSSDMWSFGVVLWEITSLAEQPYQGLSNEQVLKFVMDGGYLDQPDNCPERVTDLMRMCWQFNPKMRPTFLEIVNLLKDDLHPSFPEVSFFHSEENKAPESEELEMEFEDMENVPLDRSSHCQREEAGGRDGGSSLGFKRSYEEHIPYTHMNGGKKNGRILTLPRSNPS

For experiment [1], the target named is INSRβ (insulin receptor beta subunit), endogenous (human (endogenous in HeLa and HepG2)) (UniProt P06213). The experiment can be described thus: co-IP; HeLa or HepG2 cells, untransfected or transfected with MARCH1 or MARCH1 deletion constructs, 5 μM MG132 overnight; IP Lysis buffer (Pierce); immunoprecipitation with IgG or anti-INSRβ antibody and protein G-agarose beads; immunoblot.

Experiment [2] deals with INSR-GFP (human) (UniProt P06213). The experiment can be described thus: co-IP; HeLa cells transfected with INSR-GFP or INSR K1079R-GFP along with MARCH1-Myc; INSRβ-GFP immunoprecipitated with IgG or anti-GFP antibody; immunoblot. Background: In western blotting, separated proteins are transferred to a membrane and probed.
The target of experiment [3] is INSR K1079R-GFP (human) (UniProt P06213). Described as above.

These are yes or no findings as the source states them, for the method shown. In cells and extracts the contact can be indirect. Some results given as binding are weak or reduced against the parent protein; the word gives no strength. Tags and fused reporters may be left off the sequences shown.

B1: MARCH1-YFP (enzyme, UniProt Q8TCQ1 1-289)
chain: MLGWCEAIARNPHRIPNNTRTPEISGDLADASQTSTLNEKSPGRSASRSSNISKASSPTTGTAPRSQSRLSVCPSTQDICRICHCEGDEESPLITPCRCTGTLRFVHQSCLHQWIKSSDTRCCELCKYDFIMETKLKPLRKWEKLQMTTSERRKIFCSVTFHVIAITCVVWSLYVLIDRTAEEIKQGNDNGVLEWPFWTKLVVVAIGFTGGLVFMYVQCKVYVQLWRRLKAYNRVIFVQNCPDTAKKLEKNFSCNVNTDIKDAVVVPVPQTGANSLPSAEGGPPEVVSV
For the molecule B1, in experiment [1], the binding result is given as “binds”.

B2: MARCH1, endogenous (enzyme, UniProt Q8TCQ1 1-289)
chain: B1 chain
As to B2, the binding entry in experiment [1] is listed as “binds”.

B3: MARCH1-Myc (enzyme, UniProt Q8TCQ1 1-289)
chain: B1 chain
For the molecule B3, the binding result in experiment [2] and in experiment [3] was “binds” in each case.
